The text below walks through data of PubChem BioAssay AID2685 (National Center for Advancing Translational Sciences (NCATS), 2010).

This assay in a line: qHTS Assay for Lipid Storage Modulators in Drosophila S3 Cells.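 For cell number change: cells counted by Cell Tracker Red CMTPX staining in the red channel.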 The following applies: BODIPY lipid droplet fluorescence, 18-24 h; for cell number change: measured here: cell count max response, cells fed with added oleic acid. The method in brief:
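Drosophila S3 cells loaded with oleic acid (400 uM, as added) and compounds at several concentrations; lipid droplets imaged by 488-nm laser-scanning cytometry, 500–530 nm intensity and object ratio to cell channel. Percent activity normalized to 20 uM Triacsin C.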
(In general: Quantitative high-throughput screening tests each substance at several concentrations.)

Where [1] appears, read: measured here: cell number channel AC50, cells fed with added oleic acid.
Where [2] appears, read: measured here: lipid fluorescence (Fed channel) AC50, cells fed with added oleic acid.

The structures appear in SMILES notation. This is one part of the list. These are further read-outs of the screen, such as a control signal, another cell line or another target. No call is given for them. The list favours compounds with an active or inconclusive main result. Words in brackets tell the shape of the fitted curve; partial curves, single points and poor fits give uncertain potencies.

For the molecule `COc1ccc(N=Nc2nc(-c3ccccc3)c(-c3ccccc3)[nH]2)cc1`, the cell number change was -41.3%. In addition, the AC50 (commonly the midpoint of the concentration-response curve, whichever way the signal moves) under setting [1] was 4.11 µM [falling, full curve]. Also, the AC50 under setting [2] was 2.31 µM [falling, full curve].
Regarding `Cc1onc(-c2ccccc2)c1C(=O)Nc1ccc(N2CCOCC2)cc1`, the AC50 under setting [2] is 6.51 µM [falling, partial curve, poor fit].
For the molecule `O/C=c1\ccc2cccc3nc(C(F)(F)F)nc1c23`, the cell number change is -35.5%. Besides, the AC50 under setting [1] was 29.1 µM [falling, partial curve, poor fit]. In addition, the AC50 under setting [2] is 16.4 µM [falling, partial curve, poor fit].
As for `COc1ccc(C2=NOC(C(=O)NCC(C)C)C2)cc1` (centres undefined), the cell number change is 19.6%. Moreover, under setting [2], the AC50 is 20.6 µM [rising, partial curve, poor fit].
On to `Cc1nn(CCC(=O)N2CCN(S(=O)(=O)c3ccc(Cl)cc3)CC2)c(C)c1C`, for which the cell number change turned out to be 10.7%. Also, the AC50 under setting [2] was 29.1 µM [rising, partial curve, poor fit].
Turning to `Cc1ccccc1S(=O)(=O)Cc1ccc(C(=O)NCCCN2CCN(C)CC2)o1`, the cell number change is 3.33%. Moreover, under setting [1], the half-maximal activity concentration (AC50) was 0.103 µM [falling, full curve, poor fit]. Moreover, the AC50 under setting [2] was 0.116 µM [falling, full curve, poor fit].
Turning to `N#C/C(=C\c1ccncc1)c1nc2ccccc2[nH]1`, the AC50 under setting [1] is 4.11 µM [rising, single point].
As for `CC(=O)Nc1ccc(S(=O)(=O)N2CCN(c3nnnn3-c3ccccc3)CC2)cc1`, the cell number change is -50.2%. Further, the AC50 under setting [1] was 4.11 µM [falling, full curve, poor fit]. Further, the AC50 under setting [2] is 7.31 µM [falling, partial curve].
Regarding `Cc1cc(C)c(C)c(S(=O)(=O)N(C)C2CCN(C)CC2)c1C`, the cell number change was determined as 36.6%. Under setting [1], the AC50 is 2.59 µM [rising, full curve].
On to `O=C(O)C1=CC(=C(c2ccc(O)c(C(=O)O)c2)c2ccc(O)c(C(=O)O)c2)C=CC1=O`, for which the cell number change turned out to be 1.75%. For the same molecule, under setting [2], the half-maximal activity concentration (AC50) is 29.1 µM [rising, single point].
Turning to `c1ccc2c(N3CCOCC3)c3c(nc2c1)CCC3`, the cell number change was -7.33%. Also, the AC50 under setting [2] was 0.651 µM [falling, single point].
Consider `COc1ccc(Cl)cc1NC(=O)CCCC(=O)c1ccccc1`, for which the cell number change is -59.1%. The concentration at half-maximal activity (AC50) under setting [1] was 14.6 µM [falling, partial curve]. Further, the AC50 under setting [2] was 10.3 µM [falling, partial curve].
For `COc1ccc(CCNC(=O)COC(=O)/C=C/c2cc(OC)c(OC)c(OC)c2)cc1OC`, the cell number change is -67.6%. For the same molecule, the AC50 under setting [1] is 3.26 µM [falling, full curve]. Further, the AC50 under setting [2] was 2.91 µM [falling, full curve].
Regarding `COC(=O)c1cn(NC(=O)Cc2ccccc2Br)c(=O)c2ccccc12`, the AC50 reads like this: under setting [1], 0.731 µM [rising, single point]; under setting [2], 0.82 µM [rising, full curve].
Consider `O=C(c1cccs1)N1CCN(c2ncc(C(F)(F)F)cc2Cl)CC1`, for which the cell number change is -13.9%.
As for `CCc1c(C)nc(N)n2c(SCC(=O)N3CCCc4ccccc43)nnc12`, the cell number change stood at 61.7%. Moreover, the AC50 under setting [1] was 11.6 µM [rising, partial curve].
Regarding `COc1ccc(C)cc1NC(=O)NCCCCc1ccccc1`, the cell number change was -69%. Besides, the AC50 under setting [1] is 17.8 µM [falling, partial curve]. The AC50 under setting [2] was 8.91 µM [falling, partial curve].
With `CC(C)c1ccc(-c2nnn(Cc3nc4ccccc4s3)n2)cc1`, the cell number change came to 11.7%. For the same molecule, the AC50 under setting [2] is 0.164 µM [falling, full curve].
In the case of `O=C1CC(c2ccco2)CC2=C1C1c3ccccc3C(=O)N1c1ccccc1N2` (centres undefined), the cell number change was -5.25%. For the same molecule, the AC50 under setting [2] is 13 µM [rising, single point].
As for `CC1CCCN(C(=O)CSc2ncccn2)C1` (centres undefined), the cell number change came to 0.794%. Also, under setting [2], the AC50 is 9.2 µM [falling, single point].
As to `COc1ccc(C(=O)CNc2cccc(F)c2)cc1`, the cell number change is -15%. Moreover, the AC50 under setting [2] is 29.1 µM [falling, single point].
`COc1ccc(C/C(N)=N/OC(C)=O)cc1OC`: the cell number change was -20.1%. For the same molecule, the AC50 under setting [2] was 0.731 µM [falling, full curve].
Consider `Clc1ccc(-n2ncc3c(N4CCCCCC4)ncnc32)cc1`, for which the cell number change was found to be 26.8%. Moreover, under setting [2], the AC50 is 29.1 µM [rising, single point].
`CCCN(CCC)CCNC(=O)CCC(=O)Nc1ccc2nc(N3CCOCC3)cc(C)c2c1`: the cell number change was 9.91%. Under setting [2], the AC50 is 2.31 µM [rising, full curve].
Turning to `CCc1ccc(-c2nnn(CCC#N)n2)cc1`, the cell number change was 29.7%. Further, the AC50 under setting [2] was 18.4 µM [rising, single point].
As to `COc1ccc(S(=O)(=O)N2CCOCC2)cc1NC(=O)c1ccc(=O)[nH]c1`, the cell number change is -13.7%.
On to `CC1CCCCN1Cc1c(O)ccc2c(=O)c(-c3ccccc3)coc12` (centres undefined), for which the cell number change was found to be 7.98%. Moreover, the AC50 under setting [2] was 0.00411 µM [rising, full curve, poor fit].
As to `COc1ccc(-c2[nH]ncc2CN2CCCN(c3ccccc3)CC2)c(F)c1`, the cell number change is -8.53%.
Turning to `CC(C)C(NC(=O)C12CC3CC(CC(C3)C1)C2)C(=O)NC1=NCCS1` (centres undefined), the cell number change was -5.05%. For the same molecule, the AC50 under setting [2] was 1.16 µM [rising, single point].
On to `N#Cc1ccc(OCC(=O)OCC(=O)c2ccc[nH]2)cc1`, for which the cell number change is 4.18%. Besides, the AC50 under setting [2] was 3.26 µM [falling, partial curve].
As for `Cc1cnc(C(=O)OCC(=O)c2c[nH]c3ccccc23)cn1`, the cell number change came to 10.1%. In addition, under setting [1], the AC50 was 3.66 µM [falling, single point]. Besides, under setting [2], the AC50 is 4.11 µM [falling, single point].
Consider `O=C(OCC(=O)N1CCOCC1)c1ccc(Cl)cc1[N+](=O)[O-]`, for which the cell number change was 9.17%. The AC50 under setting [2] is 13 µM [rising, single point].
For the molecule `Cc1ccc(C)n1-c1ccc(-c2nnco2)cc1`, the cell number change was determined as 38.4%. Besides, the AC50 under setting [2] was 29.1 µM [rising, single point].
Turning to `CC1=C(C(=O)Nc2ccccc2)C(c2ccc(C)o2)n2ncnc2N1` (centres undefined), the cell number change is -8.66%. In addition, the concentration at half-maximal activity (AC50) under setting [2] is 0.00651 µM [falling, full curve, poor fit].
`Cc1nccn1CC(O)COc1ccccc1` (centres undefined): the cell number change was determined as 21.2%. The AC50 under setting [2] was 29.1 µM [rising, partial curve, poor fit].
Turning to `CN([C@@H](Cc1ccc(OS(=O)(=O)c2cccc3cnccc23)cc1)C(=O)N1CCN(c2ccccc2)CC1)S(=O)(=O)c1cccc2cnccc12`, the cell number change is -10.9%. The AC50 under setting [2] was 3.26 µM [rising, partial curve].
On to `Cc1cc(OCc2cc(C(=O)N3CCN(C)C(=O)[C@@H]3C)no2)cc(C)c1Cl`, for which the cell number change was -59.1%. The AC50 under setting [1] is 18.4 µM [falling, partial curve].
In the case of `Cc1ccc(OCC(=O)Nc2c(C)nn(-c3ccccc3)c2C)c(Br)c1`, the cell number change turned out to be 77.9%. For the same molecule, the AC50 under setting [1] was 2.59 µM [rising, partial curve].
Consider `COCCCNC(=O)Cn1c(=O)n(Cc2ccc(C(=O)NCCc3ccc(OC)c(OC)c3)cc2)c(=O)c2ccccc21`, for which the cell number change is -32.5%. Besides, the AC50 under setting [1] was 16.4 µM [falling, single point]. Besides, the AC50 under setting [2] was 23.1 µM [falling, single point].
On to `COc1ccc(S(=O)(=O)Nc2c(NC3CCCCC3)c3ccccc3oc2=O)cc1OC`, for which the cell number change was -37.1%. Under setting [1], the AC50 was 18.4 µM [falling, single point].
Take `CCOC(=O)Cc1csc(NC(=O)CSc2ccc(Br)cc2)n1`: the cell number change is 13.4%.
Consider `COc1ccc(NC(=O)CN(C)C(=O)CCCc2nc3ccccc3c(=O)[nH]2)cc1`, for which the cell number change is -0.33%. The AC50 under setting [2] was 2.91 µM [falling, single point].
For `COCCNCc1ccc(Cl)cc1Cl`, the cell number change was found to be 116%. The AC50 under setting [1] is 0.116 µM [rising, full curve]. In addition, under setting [2], the AC50 is 0.146 µM [rising, full curve, poor fit].
For `C1CC1Cc1noc(CN2CCN(C3C4CC5CC(C4)CC3C5)CC2)n1` (centres undefined), the cell number change amounted to 7.16%. Further, under setting [2], the AC50 was 0.116 µM [falling, full curve, poor fit].
Take `Cc1cc(C)nc(NC(N)=NC2CCCCC2)n1`: the cell number change is -38.8%. Under setting [1], the concentration at half-maximal activity (AC50) was 7.31 µM [falling, partial curve, poor fit].
In the case of `Cc1ccc(CNC(=O)c2cccc3c2C(=O)c2ccc(N4CCOCC4)cc2S3(=O)=O)cc1`, the cell number change was -24.5%. In addition, the half-maximal activity concentration (AC50) under setting [1] is 0.82 µM [falling, partial curve]. Besides, the AC50 under setting [2] is 4.11 µM [falling, partial curve, poor fit].
Turning to `COc1ccc(Cc2nnc(SCC(=O)NC(C)c3ccccc3)o2)cc1` (centres undefined), the cell number change was -0.606%. Also, the AC50 under setting [2] is 0.164 µM [falling, full curve, poor fit].
Turning to `COC(=O)c1c(O)c2c([nH]c1=O)CCCC2`, the cell number change is -4.17%. Besides, under setting [1], the AC50 was 6.51 µM [falling, single point]. Further, the half-maximal activity concentration (AC50) under setting [2] was 5.8 µM [falling, full curve, poor fit].
Turning to `CCn1nnnc1SCCSc1nnnn1CC`, the cell number change is -100%. Besides, under setting [1], the AC50 was 23.1 µM [falling, partial curve].
In the case of `COc1ccc2[nH]c(C(=O)O)c(NS(=O)(=O)c3ccc(C)cc3C)c2c1`, the cell number change is -7.75%.
The same measure, in the same setting: the result for `COCC(=O)N1CCc2ccc(NC(=O)c3ccccc3Cl)cc2C1` reads 1.76%; that for `CN(c1ccccc1)S(=O)(=O)c1ccc(C(=O)Nc2ncccc2O)cc1`, 14.7%.
With `CCOC(=O)c1sc(NC(=O)CCC(=O)O)nc1C`, the cell number change is -39.2%. Under setting [1], the AC50 was 3.66 µM [falling, partial curve, poor fit].
As for `CCCCC(CC)COC1(c2ccccc2)OC(=O)c2ccccc21` (centres undefined), the cell number change is 12.3%. Moreover, the AC50 under setting [1] is 3.26 µM [rising, single point]. Besides, under setting [2], the AC50 was 20.6 µM [falling, single point].
Regarding `Cc1c(NC(=O)C(C)OC(=O)c2ncc(Cl)c(Cl)c2Cl)c(=O)n(-c2ccccc2)n1C` (centres undefined), the cell number change is -29.8%. Besides, the AC50 under setting [1] was 2.06 µM [falling, partial curve, poor fit]. The AC50 under setting [2] is 3.66 µM [falling, single point].
For the molecule `C=CCn1c(C)cc(C(=O)CN2C(=O)c3ccccc3S2(=O)=O)c1C`, the cell number change was found to be 46.3%. The AC50 under setting [1] is 10.3 µM [rising, partial curve, poor fit].
Take `Cn1c(C(=O)N2CCOCC2)cnc1Sc1ncc(C(F)(F)F)cc1Cl`: the cell number change was 31.5%. Under setting [1], the AC50 was 1.03 µM [rising, full curve, poor fit].
